Source: doi:10.1371/journal.pone.0140310, primary screening data, rounded.

Drug key:
SU6656 (2 µM): CN(C)S(=O)(=O)c1ccc2c(c1)/C(=C/c1cc3c([nH]1)CCCC3)C(=O)N2
erlotinib (4 µM): C#Cc1cccc(Nc2ncnc3cc(OCCOC)c(OCCOC)cc23)c1
ZM336372 (10 µM): Cc1ccc(NC(=O)c2cccc(N(C)C)c2)cc1NC(=O)c1ccc(O)cc1
CP-690550 (5 µM): C[C@@H]1CCN(C(=O)CC#N)C[C@@H]1N(C)c1ncnc2[nH]ccc12

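Human melanoma cells were exposed to two drugs together for 72 h in 1,536-well plates and read by automated microscopy after fixing and staining. Values are the share of nuclei positive for cleaved PARP as a percentage of the same share in the DMSO control: 100 is the control level, higher means more apoptosis. Concentrations were fixed for each drug; these are the higher of two levels. These are primary screening values without error estimates. Basal and induced levels differ widely between cell lines.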 Only some of the drugs and lines screened are listed, without regard to their results.

| # | Cell line | SU6656 + erlotinib | ZM336372 + CP-690550 | ZM336372 + SU6656 | SU6656 + CP-690550 | ZM336372 + erlotinib | erlotinib + CP-690550 |
|---|---|---|---|---|---|---|---|
| 1 | WM115 | 483 | 54.1 | 567 | 78.6 | 343 | 157 |
| 2 | SK-MEL-5 | 149 | 75.4 | 187 | 179 | 155 | 454 |
| 3 | LOX IMVI | 25.8 | 52.1 | 157 | 72.0 | 93.8 | 95.9 |
| 4 | MeWo | 103 | 31.4 | 117 | 153 | 156 | 96.2 |
| 5 | WM3526 | 146 | 63.0 | 149 | 123 | 131 | 160 |
| 6 | G-361 | 273 | 102 | 111 | 88.3 | 104 | 34.9 |
| 7 | RVH-421 | 191 | 60.5 | 65.8 | 137 | 183 | 240 |
| 8 | WM451Lu | 140 | 114 | 152 | 97.6 | 39.0 | 130 |
| 9 | UACC-257 | 38.6 | 93.6 | 76.2 | 142 | 82.7 | 34.1 |
| 10 | MZ2-MEL | 359 | 215 | 225 | 230 | 61.0 | 97.0 |
| 11 | WM1745 | 162 | 107 | 180 | 125 | 144 | 137 |
| 12 | LB2518-MEL | 95.4 | 88.7 | 138 | 72.3 | 148 | 74.2 |
| 13 | WM1716 | 12.7 | 142 | 30.2 | 35.7 | 73.8 | 165 |
| 14 | SK-MEL-28 | 237 | 144 | 230 | 250 | 150 | 72.4 |
| 15 | COLO 800 | 306 | 103 | 339 | 277 | 67.0 | 89.2 |
| 16 | COLO 829 | 132 | 91.3 | 76.8 | 174 | 242 | 97.4 |
| 17 | SK-MEL-30 | 103 | 29.9 | 41.9 | 91.0 | 47.0 | 66.2 |
| 18 | WM3619 | 155 | 118 | 133 | 104 | 126 | 120 |
| 19 | COLO 792 | 166 | 203 | 341 | 71.4 | 86.1 | 279 |
| 20 | UACC-62 | 157 | 71.9 | 136 | 91.1 | 207 | 109 |
| 21 | A2058 | 158 | 178 | 135 | 132 | 173 | 125 |
| 22 | A101D | 156 | 50.0 | 150 | 197 | 201 | 169 |
| 23 | C32 | 189 | 153 | 159 | 91.8 | 52.4 | 77.6 |
| 24 | IST-MEL1 | 146 | 120 | 65.3 | 190 | 56.4 | 178 |
| 25 | RPMI-7951 | 105 | 51.0 | 153 | 214 | 208 | 133 |
| 26 | MEL-HO | 89.9 | 67.8 | 197 | 83.2 | 83.7 | 82.3 |
| 27 | IPC-298 | 59.4 | 95.0 | 142 | 104 | 65.5 | 48.7 |
| 28 | SK-MEL-2 | 55.0 | 160 | 43.3 | 88.9 | 91.4 | 79.2 |

The first 4 entries again:

* WM115 : SU6656 + erlotinib: 483; ZM336372 + CP-690550: 54.1; ZM336372 + SU6656: 567; SU6656 + CP-690550: 78.6; ZM336372 + erlotinib: 343; erlotinib + CP-690550: 157
* SK-MEL-5 : SU6656 + erlotinib: 149; ZM336372 + CP-690550: 75.4; ZM336372 + SU6656: 187; SU6656 + CP-690550: 179; ZM336372 + erlotinib: 155; erlotinib + CP-690550: 454
* LOX IMVI : SU6656 + erlotinib: 25.8; ZM336372 + CP-690550: 52.1; ZM336372 + SU6656: 157; SU6656 + CP-690550: 72.0; ZM336372 + erlotinib: 93.8; erlotinib + CP-690550: 95.9
* MeWo : SU6656 + erlotinib: 103; ZM336372 + CP-690550: 31.4; ZM336372 + SU6656: 117; SU6656 + CP-690550: 153; ZM336372 + erlotinib: 156; erlotinib + CP-690550: 96.2